Earlier results in patent US6228985A, “Derivatives of aminobenzoic and aminobiphenylcarboxylic acids useful as anti-cancer agents” (Schering Corporation, priority 1998, dated 2001).
At least one structure is not confirmed: it was looked up by name or label, or the drawing left a doubt.

Tested on: uPA:uPAR interaction
Conditions: cited from earlier work

Structure (SMILES): O=S(=O)(O)c1cccc2cccc(Nc3ccccc3)c12 [8-anilinonaphthalene sulfonic acid]
- inhibition of the uPA:uPAR interaction: inhibit the uPA:uPAR interaction
